The source of these data is US8211875B2, “Local treatment of neurofibromas” (Nexgenix Pharmaceuticals Inc, priority 2005, dated 2012).

The test in a line: Cell proliferation assay (ATPlite) in a panel of NF1 related cell lines. The class given is cell-based, human and mouse. The settings on record: 72 h, several NF1-related cell lines, cultured 3 days, selection criterion IC50 equal or below 10 μM, read-out: IC50 (concentration required for inhibition of cell proliferation by 50%). How it is done: Several physiologically relevant cells or cell lines were employed to measure compound potency in cell proliferation assays. These cells include: (1) NF1-deficient human malignant peripheral nerve sheath tumor (MPNST) cells, (2) Nf1^−/− mouse embryonic Schwann cells, and (3) Nf1- and p53-deficient mouse cell. […] All the other cells are grown in DMEM with 10% fetal bovine serum (FBS).
Various concentrations of each compound/agent to be tested were added to the growing media and the cells were then cultured for 3 days. […] Viable cells were measured by detecting luminescence generated from reaction of ATPlite solution and the ATP in the cells.

Turning to `Clc1ccccc1C(c1ccccc1)(c1ccccc1)n1ccnc1` [clotrimazole, Clotrimazole], the IC50 is not above 10 µM.
